Laboratory results as given in paper PMC13043726, “SFPQ directs histone H3.3 deposition to R-loops in DNA repeats to protect genome stability”.
Results are given in words; binding and its absence hold for the method and conditions named. In cells and extracts the contact can be indirect. A yes stands for co-enrichment or nearness to the bait. Other partners may have been found. Sequences can lack the tags named with a protein.

Sequences of proteins named here, by UniProt entry; tags and fusion partners are left off.
UniProt Q9UER7: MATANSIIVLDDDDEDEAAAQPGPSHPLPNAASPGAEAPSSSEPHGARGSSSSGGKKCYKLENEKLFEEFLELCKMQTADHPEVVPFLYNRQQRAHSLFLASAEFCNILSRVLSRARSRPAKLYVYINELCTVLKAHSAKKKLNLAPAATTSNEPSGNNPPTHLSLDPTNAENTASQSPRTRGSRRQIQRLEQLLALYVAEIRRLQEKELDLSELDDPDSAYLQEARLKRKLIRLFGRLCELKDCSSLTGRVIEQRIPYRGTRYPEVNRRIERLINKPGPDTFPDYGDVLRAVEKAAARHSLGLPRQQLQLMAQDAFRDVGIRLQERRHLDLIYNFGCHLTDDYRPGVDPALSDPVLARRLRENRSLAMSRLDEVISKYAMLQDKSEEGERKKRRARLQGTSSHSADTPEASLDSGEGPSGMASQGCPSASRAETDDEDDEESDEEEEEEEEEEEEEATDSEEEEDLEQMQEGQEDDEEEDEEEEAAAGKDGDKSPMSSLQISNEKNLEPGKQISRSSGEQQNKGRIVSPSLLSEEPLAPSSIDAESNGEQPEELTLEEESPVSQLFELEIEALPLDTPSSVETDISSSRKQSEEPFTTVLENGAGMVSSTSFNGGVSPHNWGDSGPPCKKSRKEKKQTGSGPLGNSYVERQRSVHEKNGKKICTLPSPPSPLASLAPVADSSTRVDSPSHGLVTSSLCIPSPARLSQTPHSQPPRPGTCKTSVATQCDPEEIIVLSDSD

Target: T1, myc-tagged human SFPQ, full length (human) (UniProt P23246)
T1 sequence: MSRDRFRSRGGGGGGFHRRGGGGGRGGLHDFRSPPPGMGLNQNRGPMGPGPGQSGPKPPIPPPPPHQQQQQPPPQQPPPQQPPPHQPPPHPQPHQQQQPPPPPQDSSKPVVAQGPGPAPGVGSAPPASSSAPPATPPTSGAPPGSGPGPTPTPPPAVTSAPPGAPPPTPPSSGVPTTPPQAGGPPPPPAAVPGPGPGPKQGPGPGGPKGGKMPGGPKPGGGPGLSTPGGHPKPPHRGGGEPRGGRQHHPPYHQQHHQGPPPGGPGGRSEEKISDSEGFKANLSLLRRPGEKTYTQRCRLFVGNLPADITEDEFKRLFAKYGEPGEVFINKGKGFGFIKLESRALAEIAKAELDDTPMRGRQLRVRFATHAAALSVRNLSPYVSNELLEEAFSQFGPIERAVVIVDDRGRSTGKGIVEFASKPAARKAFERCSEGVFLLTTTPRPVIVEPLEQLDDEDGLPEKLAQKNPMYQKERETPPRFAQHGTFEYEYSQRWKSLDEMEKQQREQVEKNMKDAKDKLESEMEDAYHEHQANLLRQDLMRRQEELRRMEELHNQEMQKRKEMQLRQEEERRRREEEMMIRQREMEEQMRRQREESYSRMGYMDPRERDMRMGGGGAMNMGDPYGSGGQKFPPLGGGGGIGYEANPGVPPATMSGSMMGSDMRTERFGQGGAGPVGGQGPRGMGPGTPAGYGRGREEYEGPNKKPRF
Experiment: affinity purification with mass spectrometry; myc-SFPQ transiently overexpressed in H1299; anti-myc immunoprecipitation; SDS-PAGE, Coomassie-stained bands excised; MALDI-TOF; control myc-Bif-1

Q: “endogenous Death Domain-Associated Protein (DAXX) (from UniProt Q9UER7 1-740)” was tested. Which binding did it give?
A: binds
